Values from PubChem BioAssay AID652259 (Drosophila RNAi Screening Center, 2013).

- Test: 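Identify new Wingless signalling regulators in fly cells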 (primary screen)
- Cells: Drosophila clone 8 imaginal disc epithelial cells
- Reagent: long dsRNA against Drosophila genes
- Conditions: pathway stimulated by co-transfected Wingless expression plasmid
- Detection: 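Firefly luciferase from a tcf-site Wingless reporter, measured alongside co-transfected Renilla luciferase that tracks transfection; pathway stimulated by a Wingless plasmid; the firefly-to-Renilla ratio is not deposited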
- Direction: firefly reporter light: higher = more Wg reporter light, before normalisation; Renilla control light: higher = more transfected or surviving cells
- Active means: 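Strong candidates differ from their plate mean by at least two out of four per-plate statistical tests; weak candidates meet just one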
- Calls: active = candidate regulator (raises or lowers reporter); inactive = not a candidate
The screen tested about 22,000 reagents; below is a random part of those that have a named target and a result. In the full data, 233 (1.1%) were called active. 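Light values are raw, unnormalised plate reads; the ratio scores behind the reporter calls were not deposited.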 A plus sign joins genes that one reagent is predicted to hit. The record does not give: the amount of reagent, the time to read-out, the dose of the treatment.

Gr94a [DRSC13597] scored firefly reporter light, replicate 1 = 3137; Renilla control light, replicate 1 = 1334; inactive.
CG16775 [DRSC10225] showed firefly reporter light, replicate 1 = 11061; Renilla control light, replicate 1 = 6048; inactive.
Tl [DRSC16885] scored firefly reporter light, replicate 1 = 2752; firefly reporter light, replicate 2 = 6710; Renilla control light, replicate 1 = 1235; Renilla control light, replicate 2 = 2050; inactive.
Silencing of CG15263 [DRSC01974] came out at: firefly reporter light, replicate 1 = 4930; firefly reporter light, replicate 2 = 8444; Renilla control light, replicate 1 = 1442; Renilla control light, replicate 2 = 4007; inactive.
After knock-down of Grl62c [DRSC07964], the record shows firefly reporter light, replicate 1 = 2331; Renilla control light, replicate 1 = 1316; inactive.
With knock-down of CG11313 [DRSC14295] the results were firefly reporter light, replicate 1 = 6721; Renilla control light, replicate 1 = 3075; inactive.
With knock-down of CG3857 [DRSC18542], the screen gave firefly reporter light, replicate 1 = 2680; firefly reporter light, replicate 2 = 6458; Renilla control light, replicate 1 = 1072; Renilla control light, replicate 2 = 2712; inactive.
After knock-down of FoxK [DRSC09859], the record shows firefly reporter light, replicate 1 = 10648; Renilla control light, replicate 1 = 2037; inactive.
Depletion of CCT2 [DRSC18415] resulted in: firefly reporter light, replicate 1 = 2393; firefly reporter light, replicate 2 = 3618; Renilla control light, replicate 1 = 658; Renilla control light, replicate 2 = 1392; inactive.
Knock-down of TkR86C [DRSC16880] came out at: firefly reporter light, replicate 1 = 18090; Renilla control light, replicate 1 = 4474; inactive.
After knock-down of lncRNA:CR32658 [DRSC19402] the results were firefly reporter light, replicate 1 = 20519; Renilla control light, replicate 1 = 10776; inactive.
Against CG14565 [DRSC11726] the deposit lists firefly reporter light, replicate 1 = 18003; Renilla control light, replicate 1 = 6172; inactive.
Knock-down of CG6763 [DRSC16110] came out at: firefly reporter light, replicate 1 = 15568; Renilla control light, replicate 1 = 13965; inactive.
For snky [DRSC09838] the deposit lists firefly reporter light, replicate 1 = 7154; Renilla control light, replicate 1 = 2711; inactive.
After knock-down of CG15059 [DRSC19633], the screen gave firefly reporter light, replicate 1 = 21014; Renilla control light, replicate 1 = 14512; inactive.
CG4238 [DRSC00090] scored firefly reporter light, replicate 1 = 28295; Renilla control light, replicate 1 = 13728; inactive.
Depletion of CG4238 [DRSC00644] came out at: firefly reporter light, replicate 1 = 2866; firefly reporter light, replicate 2 = 11090; Renilla control light, replicate 1 = 1235; Renilla control light, replicate 2 = 4327; inactive.
Silencing of Ada3 [DRSC20321] gave: firefly reporter light, replicate 1 = 24404; Renilla control light, replicate 1 = 9216; inactive.
After knock-down of Ada3 [DRSC20322] the results were firefly reporter light, replicate 1 = 20551; Renilla control light, replicate 1 = 8084; inactive.
CG18294 + 825-Oak + CG32214 + 2 more [DRSC22210] showed firefly reporter light, replicate 1 = 7.08e5; firefly reporter light, replicate 2 = 6.94e5; Renilla control light, replicate 1 = 3.02e5; Renilla control light, replicate 2 = 3.27e5; inactive.
After knock-down of SIFaR [DRSC13467], the screen gave firefly reporter light, replicate 1 = 2880; Renilla control light, replicate 1 = 1555; inactive.
SIFaR [DRSC14266] showed firefly reporter light, replicate 1 = 41405; Renilla control light, replicate 1 = 7674; inactive.
CG32302 [DRSC08340] scored firefly reporter light, replicate 1 = 4124; Renilla control light, replicate 1 = 1921; inactive.
Cyp4p3 [DRSC07374] gave firefly reporter light, replicate 1 = 4043; firefly reporter light, replicate 2 = 9600; Renilla control light, replicate 1 = 1175; Renilla control light, replicate 2 = 1959; inactive.
Knock-down of CycC [DRSC16619] resulted in: firefly reporter light, replicate 1 = 3314; Renilla control light, replicate 1 = 2041; inactive.
For CG4650 [DRSC02767], the values are firefly reporter light, replicate 1 = 3154; firefly reporter light, replicate 2 = 6139; Renilla control light, replicate 1 = 1552; Renilla control light, replicate 2 = 3392; inactive.
With knock-down of CG6996 [DRSC10758], the record shows firefly reporter light, replicate 1 = 11898; Renilla control light, replicate 1 = 2374; inactive.
For CG9294 [DRSC04537], the entry reads firefly reporter light, replicate 1 = 1769; firefly reporter light, replicate 2 = 5351; Renilla control light, replicate 1 = 864; Renilla control light, replicate 2 = 1977; inactive.
Scsalpha1 [DRSC08698] gave firefly reporter light, replicate 1 = 5810; Renilla control light, replicate 1 = 2698; inactive.
E(spl)m5-HLH [DRSC16695] scored firefly reporter light, replicate 1 = 19809; Renilla control light, replicate 1 = 18368; inactive.
Knock-down of CG14635 [DRSC17945] resulted in: firefly reporter light, replicate 1 = 24983; Renilla control light, replicate 1 = 14547; inactive.
Against CG15537 [DRSC15073], the values are firefly reporter light, replicate 1 = 8595; Renilla control light, replicate 1 = 3072; inactive.

5 entries already listed, arranged by “Renilla control light, replicate 1”, high to low.
E(spl)m5-HLH [DRSC16695]: firefly reporter light, replicate 1 = 19809; Renilla control light, replicate 1 = 18368; call = inactive
Scsalpha1 [DRSC08698]: firefly reporter light, replicate 1 = 5810; Renilla control light, replicate 1 = 2698; call = inactive
CG6996 [DRSC10758]: firefly reporter light, replicate 1 = 11898; Renilla control light, replicate 1 = 2374; call = inactive
CG4650 [DRSC02767]: firefly reporter light, replicate 1 = 3154; firefly reporter light, replicate 2 = 6139; Renilla control light, replicate 1 = 1552; Renilla control light, replicate 2 = 3392; call = inactive
CG9294 [DRSC04537]: firefly reporter light, replicate 1 = 1769; firefly reporter light, replicate 2 = 5351; Renilla control light, replicate 1 = 864; Renilla control light, replicate 2 = 1977; call = inactive
